# Measurements reported in PubChem BioAssay AID493014 (National Center for Advancing Translational Sciences (NCATS), 2011).
# The other results are listed elsewhere or left out. The main result of the screen is listed elsewhere. These columns were measured beside it and carry no call. Compounds called inactive in the main read-out are mostly missing here. Words in brackets tell the shape of the fitted curve; partial curves, single points and poor fits give uncertain potencies.
# Assay: qHTS Assay to Find Inhibitors of Chronic Active B-Cell Receptor Signaling
# Conditions: ABC-DLBCL IkBa-CBG/CBR reporter, luminescence ratio (green luciferase fused to IkBa over red control in TMD8 lymphoma cells), 4 h
# Procedure, shortened: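 Concentration-response series (up to 46 uM) were applied to TMD8 dual-reporter cells for 4 h at 37C with doxycycline. Green/red ratio, after filter-overlap correction, defined %Activity; red signal alone was normalised to basal cells and zero luminescence.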
# [1] = measured here: CBR red luminescence, cell number
# [2] = measured here: IkBa-CBG green luminescence
SMILES,AC50 [1],AC50 [2]
CCn1c(SCC(=O)c2ccccc2)nnc1-c1cccs1,"15.8 µM [falling, single point]",
O=S(=O)(CCc1ccncc1)C1Cc2cccc3cccc1c23 (configuration not stated),"20 µM [falling, single point]",
Cc1ccc(Cn2nnc3c(=O)[nH]c(C4CCN(S(=O)(=O)Cc5ccccc5)CC4)nc32)cc1,"11.2 µM [falling, partial curve]",
C/C(=N\NC(=O)c1ccccc1)c1ccc(C)c([N+](=O)[O-])c1,"18.4 µM [falling, single point]",
CN(C1CCCC1)C1CCN(C(=O)CNC(=O)/C=C/c2cccc(C(F)(F)F)c2)CC1,"28.2 µM [rising, single point]",
O=C(OCC(=O)N1CCN(c2ccccc2)CC1)c1ccccc1NCCO,"23.1 µM [falling, single point]",
Cc1c(NC(=S)NC(=O)C(c2ccccc2)c2ccccc2)cccc1C(=O)O,"7.94 µM [rising, partial curve]","11.2 µM [falling, partial curve]"
c1ccc(-c2csc(Nc3ncccn3)n2)cc1,"1.3 µM [falling, full curve, poor fit]",
COC(=O)CSc1nnc(CNS(=O)(=O)c2ccc(C)cc2)n1C,"6.31 µM [falling, single point]",
C#CCOCCOCCOCCNc1nc(N2CCN(C(=O)CCCCCCCCCCNC(=O)[C@H]([C@@H](C)CC)n3cc(CCCCCN)nn3)CC2)nc(N2CCN(C(=O)CCCCCCCCCCNC(=O)[C@H](CCCCN)n3cc(CCCC(=O)O)nn3)CC2)n1,"23.1 µM [rising, partial curve]","25.9 µM [falling, partial curve, poor fit]"
COC(=O)C1=C(C)N=C2SC(C)C(=O)N2C1c1ccc(C(=O)OC)cc1 (configuration not stated),"1.41 µM [rising, partial curve]",
Cc1ccc(-c2nc(-c3nccc4ccccc34)oc2-c2ccccc2)cc1,"2.82 µM [falling, full curve]",
NC(=O)c1c(Nc2nc3c(F)cccc3s2)sc2c1CCCC2,"29.1 µM [falling, single point]",
COc1ccc(C(=O)Sc2ccc(C)cc2)cc1OC,"1.46 µM [rising, partial curve, poor fit]",
CCC(CO)Oc1cc(NCc2ccc(OC)cc2)c2ncn(C(C)C)c2c1 (configuration not stated),"0.291 µM [rising, full curve, poor fit]",
O=C(CCN1C(=O)CSC1=O)Nc1ccccc1,"0.92 µM [rising, full curve, poor fit]",
COc1cc(/C=C(\C#N)C(=O)NC2CCCCC2)ccc1OCc1ccc(C(=O)O)cc1,"10 µM [falling, partial curve, poor fit]",
CCc1ccc(NC(=O)c2cc(C)no2)cc1,"0.0891 µM [rising, full curve, poor fit]",
CCN1C(=O)/C(=C\N2CCN(c3ccccc3)CC2)SC1=S,"4.11 µM [rising, partial curve]",
CN(C)CCCN(C(=O)c1ccc2c(c1)CCCC2)c1nc2ccc(F)cc2s1,"29.1 µM [falling, single point]",
Cc1ccn2c(C(=O)NNC(=O)Nc3ccc(Cl)cc3)c(C)nc2c1,"2.51 µM [rising, full curve]",

SMILES,AC50 [1],AC50 [2]
O=C(CCc1ccccc1)N1CCN(c2ccc([N+](=O)[O-])cc2)CC1,"10 µM [falling, partial curve]",
COc1cccc(OC)c1-c1nn2c(-c3ccco3)nnc2s1,"3.55 µM [rising, partial curve, poor fit]",
CNS(=O)(=O)c1cccc(C(=O)OCC(=O)c2cc(C)n(CC3CCCO3)c2C)c1 (configuration not stated),"18.4 µM [rising, single point]",
Cc1ccc(C[n+]2cc(-c3ccc(Cl)cc3)n3c2CCC3)cc1,"12.6 µM [falling, partial curve]",
O=C(Nc1ccc(N2CCOCC2)c(Cl)c1)c1ccco1,,"20.6 µM [falling, single point]"
CCN(CCCNc1ncnc2nc[nH]c12)c1cccc(C)c1,"4.11 µM [rising, single point]",
COc1cccc(C2(O)CCN(C(=O)C(C)C)CC2)c1,"6.31 µM [rising, single point]",
O=S(=O)(c1ccc2c(c1)OCCO2)C1CCC(S(=O)(=O)c2c(F)cccc2F)CC1 (configuration not stated),"2.06 µM [rising, partial curve, poor fit]",
C[C@]12c3[nH]c4ccc(Cl)cc4c3CCN1C(=O)[C@@H](CC(=O)NCc1ccco1)C[C@@H]2C(=O)N1CCCCC1,"14.6 µM [falling, single point]",
O=C(NC(=S)N1CCCc2ccccc21)c1ccc(Cl)cc1,"0.58 µM [falling, full curve]",
Cc1cc2c(=O)oc(-c3ccc(Br)cc3)nc2s1,"3.16 µM [falling, full curve]",
Cc1ccc(NCc2cccnc2)cc1,"8.2 µM [rising, partial curve, poor fit]",
CCOC(=O)/C(C#N)=N/Nc1ccccc1OC,"4.11 µM [rising, single point]",
Cc1[nH]n(-c2ccccc2)c(=O)c1C=NC1CCCCC1,"35.5 µM [falling, single point]",
COC(=O)c1ccccc1NC(=O)CN1CCC(n2nnc3cc(F)ccc32)CC1,"29.1 µM [falling, single point]",
CCn1c(-c2cc(-c3ccc(OC(C)C)cc3)nc3ccccc23)n[nH]c1=S,"0.164 µM [falling, full curve, poor fit]",
C/C(Cl)=C\COc1cc(C)nc2c(Br)cccc12,"4.47 µM [rising, partial curve]",
CC1CN(C(=O)COC(=O)c2ccc(F)cc2Cl)CC(C)O1 (configuration not stated),"14.1 µM [rising, partial curve]",
C=CCOc1ccc(/C=N/NC(=O)c2cc3c(OC)cc(OC)cc3[nH]2)cc1,"11.2 µM [falling, partial curve]",
O=C(c1cc2cc(Br)ccc2o1)N1CCOCC1,"5.01 µM [rising, partial curve]",
C=CCN(c1ccc(OC)cc1)S(=O)(=O)c1ccc(Cl)c(C(=O)OCC(=O)NC2CC2)c1,"3.98 µM [falling, partial curve, poor fit]",

# Copied from the list.
# AC50 [1], `Cc1ccc(NCc2cccnc2)cc1` reads 8.2 µM [rising, partial curve, poor fit]
# AC50 [1], `C=CCN(c1ccc(OC)cc1)S(=O)(=O)c1ccc(Cl)c(C(=O)OCC(=O)NC2CC2)c1` reads 3.98 µM [falling, partial curve, poor fit]
# AC50 [1], `O=C(CCc1ccccc1)N1CCN(c2ccc([N+](=O)[O-])cc2)CC1` reads 10 µM [falling, partial curve]

# Remaining list, next part:

SMILES,AC50 [1],AC50 [2]
Cc1cc(N2CCCC2)ccc1/C=C1\NC(=S)N(C)C1=O,"35.5 µM [falling, single point]",
COc1cc2c(cc1OC)C(/C(C#N)=N\O)=NC(C)(C)C2,"14.6 µM [rising, partial curve]","18.4 µM [falling, partial curve, poor fit]"
C=CCNC(=O)/C(C#N)=C/c1ccc2c(c1)OCCO2,"35.5 µM [falling, single point]",
CC(=O)Nc1ccc(NC2=C/C(=N/S(=O)(=O)c3cccs3)c3ccccc3C2=O)cc1,"2.24 µM [falling, full curve, poor fit]",
C[C@@H]1C[C@H]2[C@@H]3CCC4=CC(=O)C=C[C@]4(C)[C@@]3(F)[C@@H](O)C[C@]2(C)[C@@]1(O)C(=O)CO,"0.00411 µM [rising, full curve, poor fit]",
CN(C)c1ccc(C2C3C(=O)N(c4ccc(C(=O)O)cc4)C(=O)C3ON2c2ccccc2)cc1 (configuration not stated),"35.5 µM [falling, single point]",
O=C(NCC1CCCO1)c1cc2nc(-c3ccco3)cc(C(F)(F)Cl)n2n1 (configuration not stated),"22.4 µM [falling, single point]",
Cc1oncc1-c1csc(-c2ccccc2)n1,"5.62 µM [rising, partial curve]",
O=c1c(-c2ccccc2)coc2cc(O)ccc12,,"3.98 µM [rising, partial curve, poor fit]"
Cc1cc(NCCCN)nc(-c2ccccc2O)n1,"20.6 µM [falling, partial curve]",
O=C(c1cc(-c2ccc(Br)cc2)on1)N1CCCC1,"2 µM [falling, full curve, poor fit]",
CC1CCc2nc(NC(=O)CSc3nc4ccccc4o3)sc2C1 (configuration not stated),"29.1 µM [rising, single point]",
O=C(CCCCCN1C(=O)c2cccc3cccc(c23)C1=O)NCc1cccnc1,"3.98 µM [falling, full curve]",
Cc1nn2c(C(F)(F)F)cc(-c3ccc(Cl)cc3)nc2c1C(=O)N1CCOCC1,"17.8 µM [rising, partial curve, poor fit]",
C=CCNC(=S)N1CCC(Cc2ccccc2)CC1,"1.26 µM [rising, full curve]",
COc1ccc(C2C3=C(CCCC3=O)Nc3ccc4ncccc4c32)cc1OC (configuration not stated),"12.6 µM [rising, partial curve, poor fit]",
CCOc1cc(/C=N/NC(=S)Nc2ccccc2C(F)(F)F)ccc1OCC(=O)N1CCOCC1,"4.11 µM [rising, full curve, poor fit]","18.4 µM [falling, single point]"
O=C(Nc1nc2ccsc2c(=O)s1)c1ccco1,"7.08 µM [falling, partial curve]",
O=C(CCN1C(=O)S/C(=C\c2ccccc2)C1=O)NC1CCS(=O)(=O)C1 (configuration not stated),"35.5 µM [falling, single point]",
COc1ccc(/C=C2\SC(=Nc3ccccc3OC)NC2=O)cc1,"1.26 µM [falling, full curve]",
CCOC(=O)c1ccc(NC(=O)c2c(O)c3ccccc3n(C)c2=O)cc1,"0.355 µM [falling, full curve, poor fit]",
